# Experimental data published in patent US20220119777A1, “CHEMILUMINESCENCE PHOTODYNAMIC VIRUS INACTIVATION OF RED BLOOD CELLS” (priority 2020, published 2022).
# For at least one compound, name, drawing or mass did not settle the structure.
# System: bovine viral diarrhea virus (BVDV)
# Assay: Hypericin-Luciferase inactivation of BVDV spiked into human red blood cell concentrate, TCID50 titration (CPE)
# Type: cell-based
# Experimental: Ten different combinations of Dulbecco's modified eagle medium without calcium and magnesium (DMEM (—Ca++, —Mg++)), RBCC, virus, hypericin, luciferin, ATP and luciferase were prepared to all contain equivalent titers of BVDV calculated to be 6.48 log 10TCID50/mL based on the titer of the original virus stock. The concentrations of hypericin tested were 0, 40 and 200 μg/mL. Luciferase was tested at 0, 0.8 and 4.0 μM. Luciferin and ATP were present at 80 and 800 μM respectively when luciferase was present and absent in the absence of luciferase.
# The components were mixed and incubated at room temperature (RT) for 2 hours in the dark followed by titration of unwashed and washed samples as previously described. Washing rows of wells with dilutions 1 and 2 was performed 3 days post-infection. Final cytopathic effects (CPEs) were read 10 days post-infection.
# Eleven different combinations of DMEM (—Ca++, —Mg++), RBCC, virus, hypericin, luciferin, adenosine triphosphate (ATP) and luciferase were prepared to all contain equivalent titers of BVDV calculated to be 6.48 log 10TCID50/mL (logs) based on the titer of the original virus stock. The concentrations of hypericin tested were 10, 20 and 40 μg/mL. Luciferase was tested at 0.16, 0.32 and 0.8 μM. Luciferin and ATP were present at 80 and 800 μM, respectively.
# The components were mixed and incubated at RT for 2 hours in the dark followed by titration of unwashed and washed samples as previously described. Washing of rows of wells with dilutions 1 and 2 was performed […] post-infection. Final CPE were read 10 days post-infection.
# Ten different combinations of DMEM (—Ca++, —Mg++), RBCC, virus, hypericin, luciferin, adenosine triphosphate (ATP) and luciferase were prepared to all contain equivalent titers of BVDV calculated to be 6.48 log10 TCID50/mL (logs) based on the titer of the original virus stock. […]
# The compounds were mixed and incubated at RT for 2 hours in the dark followed by titration of unwashed and washed samples as previously described. […] Final CPEs were read 10 days post-infection.
structure (smiles),measurement,setting,value
"Cc1cc(O)c2c(=O)c3c(O)cc(O)c4c5c(O)cc(O)c6c(=O)c7c(O)cc(C)c8c1c2c(c34)c(c78)c65 [Hypericin, hypericin]",residual virus in washed samples,"Example 1, high dose of hypericin (200 μg/mL), washed",residual virus was detectable
same,elimination of virus after washing,"Example 1, low dose hypericin (40 μg/mL) with or without luciferase, followed by washing",complete elimination of the virus to undetectable levels
same,complete inactivation/elimination in washed samples,"Example 3, higher doses of hypericin (80, 120 μg/mL), washed, true residuals observed",complete inactivation/elimination was not seen
